The list shows a part of the results. These are raw signals, not scaled to a control.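 First-pass screen: polymyxin B was added at a level that permeabilizes the Salmonella outer membrane while sparing the inner membrane. DMSO wells, with and without polymyxin B, defined maximum growth. Because plates differed from one another, each plate's data were ranked separately and the compounds with the lowest OD600 were carried forward as hits.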
Test system: Salmonella enterica serovar Typhimurium SL1344
Assay: bacterial growth OD600 after 18 h with compound and polymyxin B; higher = more bacterial growth (less inhibition)
Settings: 50 µM, Mueller-Hinton broth

Row | Compound | bacterial growth OD600 (polymyxin B 0.75 µg/mL) | bacterial growth OD600 (polymyxin B 1 µg/mL)
1 | O=C(Cn1nnnc1CN1CCCC1)NCCCN1CCCc2ccccc21 | 0.74 | 
2 | CCCc1cc(C(=O)N2CCC(C3(CC)NC(=O)N(Cc4ccc5c(c4)OCO5)C3=O)CC2)n(C)n1 (stereo not given) | 0.741 | 
3 | O=C(NC1CCCC1)c1ccc(N2CCC(NCc3cccc(C(F)(F)F)c3)CC2)cc1 | 0.004 | 
4 | CC(NC(=O)c1cccc(OC2CCN(C(=O)C3CC3)CC2)c1)c1ccc(F)cc1 (stereo not given) |  | 0.923
5 | COc1ccccc1CNC(=O)c1c(OC)cc(=O)n2c1CCN(Cc1ccc(C)c(C)c1)CC2 | 0.731 | 
6 | COc1ccc(CN2CCN(Cc3cccc(F)c3)CC2CCO)cc1C (stereo not given) |  | 0.873
7 | CCC(O)C1CCN(C(=O)CC2(c3ccccc3Cl)CC(=O)N(C3CCCC3)C2=O)CC1 (stereo not given) | 0.568 | 
8 | Cc1ccccc1-n1cc(CN(C)C(=O)Cn2nnnc2CN2CCC(C)CC2)cn1 | 0.643 | 
9 | Cc1ccccc1N1CCC(N2CCN(CC3CCCCC3)C(CCO)C2)CC1 (stereo not given) |  | 0.886
10 | O=C1CCCN1CCC(=O)N1CCCC(CCc2cccc(C(F)(F)F)c2)C1 (stereo not given) | 0.464 | 
11 | COc1ccc(OCc2nc(C(=O)NC(C)(C)C)co2)cc1 |  | 0.868
12 | O=C(NC1CCCC1)c1ccc(OC2CCN(C(=O)C3CCCO3)CC2)c(Cl)c1 (stereo not given) |  | 0.889
13 | Cc1ccc(S(=O)(=O)N2CCCC(CNC(=O)c3ccco3)C2)s1 (stereo not given) | 0.832 | 
14 | Cc1ccccc1CC(=O)N1CCC(CCC(=O)NC2CC2)CC1 |  | 0.958
15 | CC#CCN1C(=O)NC(CCc2ccccc2)(C2CCN(C(=O)/C=C/c3cccc(F)c3)CC2)C1=O (stereo not given) | 0.009 | 
16 | COc1cc(C)ccc1OCc1nc(C(=O)N(C)Cc2ccc(F)cc2)co1 | 0.51 | 
17 | O=C(NCc1nc(NCCCc2ccccc2)c2ccccc2n1)c1c(F)cccc1Cl | 0.753 | 
18 | CC(=O)c1ccccc1-c1ccc2c(c1)CC(CNC(=O)Cc1cccc(C)c1)O2 (stereo not given) | 0.004 | 
19 | COc1ccccc1CNC(=O)c1c(OC)cc(=O)n2c1CCN(Cc1cc(C)cc(C)c1)CC2 | 0.744 | 
20 | COc1ccccc1-c1cn2c(C(=O)N(C)C(C)c3ccccn3)csc2n1 (stereo not given) | 0.789 | 
21 | CCOc1ccc(CN2CCN(Cc3ccc(C)cc3)CC2CCO)cc1 (stereo not given) |  | 0.814
22 | OC1CCCN(CCNc2nc3nonc3nc2N2CCCCC2)C1 (stereo not given) | 0.824 | 
23 | Cc1csc(CNC(=O)c2cc(COc3ccc4c(c3)OCO4)[nH]n2)n1 |  | 0.822
24 | CCC1CN(C(=O)c2ccc(NCCc3cccc(C)n3)nc2)CCN1C(C)C (stereo not given) | 0.764 | 
25 | COc1cc(CC2(CCC(=O)N3CCN(c4ccc(C)cc4C)CC3)CCC(=O)N2)ccc1F (stereo not given) | 0.038 | 
26 | CCCCn1c(CN2C[C@@H](C)O[C@@H](C)C2)cnc1S(=O)(=O)C1CCCCC1 |  | 0.884
27 | O=C(NC1CCCN(c2ncccn2)C1)c1sccc1Cl (stereo not given) |  | 0.787
28 | CCO[C@H]1[C@H](NC(=O)c2cccnc2)c2ccccc2C12CCN(C(=O)CCc1cnn(C)c1)CC2 | 0.831 | 
29 | Cc1ccccc1CC(C1CCN(C(=O)C(C)Oc2ccccc2)CC1)N(C)C(=O)Cn1cccn1 (stereo not given) | 0.855 | 
30 | OCC1(Cc2ccccc2)CCN(Cc2ccccc2-c2ccco2)CC1 |  | 0.934

Fetched by compound from above:
Row | Compound | bacterial growth OD600 (polymyxin B 0.75 µg/mL) | bacterial growth OD600 (polymyxin B 1 µg/mL)
24 | CCC1CN(C(=O)c2ccc(NCCc3cccc(C)n3)nc2)CCN1C(C)C (stereo not given) | 0.764 | 
20 | COc1ccccc1-c1cn2c(C(=O)N(C)C(C)c3ccccn3)csc2n1 (stereo not given) | 0.789 | 

Source: the supplement of paper PMC12889115
